The supplement of paper PMC10849652
The list shows a part of the results.

Protein sequences, listed by entry. Tags and fused reporters are not part of them. Lines headed by an entry give the natural chain unless they say otherwise; changes in a name come on top.
UniProt P53007, whole entry, looked up: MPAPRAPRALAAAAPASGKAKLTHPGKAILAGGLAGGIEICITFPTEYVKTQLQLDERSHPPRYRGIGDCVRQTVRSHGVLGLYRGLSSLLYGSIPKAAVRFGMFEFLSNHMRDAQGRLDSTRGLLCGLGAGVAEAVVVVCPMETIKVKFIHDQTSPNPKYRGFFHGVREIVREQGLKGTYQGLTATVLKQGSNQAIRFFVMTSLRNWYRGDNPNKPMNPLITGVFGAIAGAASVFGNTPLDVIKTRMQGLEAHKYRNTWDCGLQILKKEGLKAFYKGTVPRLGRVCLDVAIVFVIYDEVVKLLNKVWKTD
UniProt O75746: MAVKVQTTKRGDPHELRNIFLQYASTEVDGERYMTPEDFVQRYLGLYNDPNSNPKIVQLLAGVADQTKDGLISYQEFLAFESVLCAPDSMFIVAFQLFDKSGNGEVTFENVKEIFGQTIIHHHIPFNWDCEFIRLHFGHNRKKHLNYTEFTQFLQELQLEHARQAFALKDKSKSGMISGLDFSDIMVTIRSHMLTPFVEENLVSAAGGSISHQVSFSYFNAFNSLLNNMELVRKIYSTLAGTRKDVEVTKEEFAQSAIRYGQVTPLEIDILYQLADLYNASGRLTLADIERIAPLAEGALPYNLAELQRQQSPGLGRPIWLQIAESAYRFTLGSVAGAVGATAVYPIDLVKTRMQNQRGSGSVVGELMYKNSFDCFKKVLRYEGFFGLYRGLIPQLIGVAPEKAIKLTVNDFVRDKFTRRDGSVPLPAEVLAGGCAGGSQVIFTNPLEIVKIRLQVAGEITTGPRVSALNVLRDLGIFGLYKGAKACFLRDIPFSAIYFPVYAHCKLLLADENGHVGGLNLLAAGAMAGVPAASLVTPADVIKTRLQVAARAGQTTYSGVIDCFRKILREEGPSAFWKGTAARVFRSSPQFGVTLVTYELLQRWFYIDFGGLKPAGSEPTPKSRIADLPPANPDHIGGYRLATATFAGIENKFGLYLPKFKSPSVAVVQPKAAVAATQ
UniProt O43826: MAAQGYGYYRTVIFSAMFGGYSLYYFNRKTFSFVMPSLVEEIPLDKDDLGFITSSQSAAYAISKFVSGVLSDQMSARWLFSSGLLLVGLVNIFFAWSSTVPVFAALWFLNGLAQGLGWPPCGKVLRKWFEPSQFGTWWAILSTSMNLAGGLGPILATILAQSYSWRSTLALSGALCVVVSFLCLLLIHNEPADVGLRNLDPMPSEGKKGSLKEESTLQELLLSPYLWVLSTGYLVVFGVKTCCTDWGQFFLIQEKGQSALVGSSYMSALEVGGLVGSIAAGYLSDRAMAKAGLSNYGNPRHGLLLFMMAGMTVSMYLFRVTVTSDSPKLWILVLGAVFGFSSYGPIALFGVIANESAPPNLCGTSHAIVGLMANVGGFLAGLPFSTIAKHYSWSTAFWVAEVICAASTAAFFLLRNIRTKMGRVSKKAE
UniProt O43772: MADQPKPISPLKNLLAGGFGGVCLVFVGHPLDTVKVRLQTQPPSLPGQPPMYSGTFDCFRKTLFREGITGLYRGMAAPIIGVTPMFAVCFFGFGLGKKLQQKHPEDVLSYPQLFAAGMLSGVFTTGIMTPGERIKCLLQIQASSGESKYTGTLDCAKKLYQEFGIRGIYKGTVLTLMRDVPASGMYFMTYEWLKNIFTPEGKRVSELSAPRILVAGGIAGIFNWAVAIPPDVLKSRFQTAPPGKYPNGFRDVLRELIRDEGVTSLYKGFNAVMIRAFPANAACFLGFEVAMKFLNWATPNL
UniProt Q7Z2H8: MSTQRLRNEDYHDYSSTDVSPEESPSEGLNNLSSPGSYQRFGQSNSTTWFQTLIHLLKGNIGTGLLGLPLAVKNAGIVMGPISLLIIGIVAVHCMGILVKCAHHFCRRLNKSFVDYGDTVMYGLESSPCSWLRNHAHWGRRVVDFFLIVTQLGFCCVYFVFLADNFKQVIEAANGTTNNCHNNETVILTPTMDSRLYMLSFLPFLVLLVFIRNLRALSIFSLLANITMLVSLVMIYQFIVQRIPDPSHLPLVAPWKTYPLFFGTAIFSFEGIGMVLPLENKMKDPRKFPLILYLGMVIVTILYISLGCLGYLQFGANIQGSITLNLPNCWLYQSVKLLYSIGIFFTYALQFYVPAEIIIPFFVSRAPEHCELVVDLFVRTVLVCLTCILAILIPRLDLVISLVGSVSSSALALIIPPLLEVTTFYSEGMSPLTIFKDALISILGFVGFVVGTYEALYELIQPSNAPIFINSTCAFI
UniProt Q9H1U9: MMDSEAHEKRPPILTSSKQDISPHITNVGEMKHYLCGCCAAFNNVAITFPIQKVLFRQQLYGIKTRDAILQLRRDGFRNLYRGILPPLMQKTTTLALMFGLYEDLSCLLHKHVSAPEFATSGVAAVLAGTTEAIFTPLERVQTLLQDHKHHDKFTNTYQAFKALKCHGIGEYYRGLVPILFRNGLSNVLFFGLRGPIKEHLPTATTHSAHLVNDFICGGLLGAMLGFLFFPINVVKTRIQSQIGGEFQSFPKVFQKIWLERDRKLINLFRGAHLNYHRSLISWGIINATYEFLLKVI
UniProt P53794: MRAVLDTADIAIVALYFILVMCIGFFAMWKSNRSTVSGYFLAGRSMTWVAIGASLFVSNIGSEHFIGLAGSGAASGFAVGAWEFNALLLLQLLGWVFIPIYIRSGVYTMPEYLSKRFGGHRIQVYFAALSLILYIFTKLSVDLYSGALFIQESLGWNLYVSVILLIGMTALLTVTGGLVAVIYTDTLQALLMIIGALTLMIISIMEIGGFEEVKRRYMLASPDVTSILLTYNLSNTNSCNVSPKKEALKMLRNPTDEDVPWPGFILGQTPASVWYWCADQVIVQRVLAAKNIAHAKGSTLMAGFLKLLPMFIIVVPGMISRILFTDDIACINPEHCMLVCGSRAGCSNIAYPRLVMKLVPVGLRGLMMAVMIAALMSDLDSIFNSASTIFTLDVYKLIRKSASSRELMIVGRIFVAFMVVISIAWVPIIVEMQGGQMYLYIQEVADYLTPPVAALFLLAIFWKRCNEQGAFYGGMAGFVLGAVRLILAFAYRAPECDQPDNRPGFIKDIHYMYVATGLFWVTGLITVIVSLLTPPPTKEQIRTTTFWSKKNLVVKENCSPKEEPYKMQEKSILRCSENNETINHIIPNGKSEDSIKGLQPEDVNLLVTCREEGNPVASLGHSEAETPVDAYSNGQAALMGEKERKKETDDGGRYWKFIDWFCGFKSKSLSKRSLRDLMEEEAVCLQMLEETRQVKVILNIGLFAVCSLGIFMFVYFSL
UniProt Q02978: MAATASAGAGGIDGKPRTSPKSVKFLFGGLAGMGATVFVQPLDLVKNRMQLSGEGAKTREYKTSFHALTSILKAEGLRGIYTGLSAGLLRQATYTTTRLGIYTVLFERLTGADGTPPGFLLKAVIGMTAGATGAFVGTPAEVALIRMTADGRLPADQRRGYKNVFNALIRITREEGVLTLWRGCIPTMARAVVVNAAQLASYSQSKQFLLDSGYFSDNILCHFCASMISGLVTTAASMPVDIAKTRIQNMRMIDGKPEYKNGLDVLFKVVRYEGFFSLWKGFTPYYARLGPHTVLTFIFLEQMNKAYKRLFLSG
UniProt Q9ULF5: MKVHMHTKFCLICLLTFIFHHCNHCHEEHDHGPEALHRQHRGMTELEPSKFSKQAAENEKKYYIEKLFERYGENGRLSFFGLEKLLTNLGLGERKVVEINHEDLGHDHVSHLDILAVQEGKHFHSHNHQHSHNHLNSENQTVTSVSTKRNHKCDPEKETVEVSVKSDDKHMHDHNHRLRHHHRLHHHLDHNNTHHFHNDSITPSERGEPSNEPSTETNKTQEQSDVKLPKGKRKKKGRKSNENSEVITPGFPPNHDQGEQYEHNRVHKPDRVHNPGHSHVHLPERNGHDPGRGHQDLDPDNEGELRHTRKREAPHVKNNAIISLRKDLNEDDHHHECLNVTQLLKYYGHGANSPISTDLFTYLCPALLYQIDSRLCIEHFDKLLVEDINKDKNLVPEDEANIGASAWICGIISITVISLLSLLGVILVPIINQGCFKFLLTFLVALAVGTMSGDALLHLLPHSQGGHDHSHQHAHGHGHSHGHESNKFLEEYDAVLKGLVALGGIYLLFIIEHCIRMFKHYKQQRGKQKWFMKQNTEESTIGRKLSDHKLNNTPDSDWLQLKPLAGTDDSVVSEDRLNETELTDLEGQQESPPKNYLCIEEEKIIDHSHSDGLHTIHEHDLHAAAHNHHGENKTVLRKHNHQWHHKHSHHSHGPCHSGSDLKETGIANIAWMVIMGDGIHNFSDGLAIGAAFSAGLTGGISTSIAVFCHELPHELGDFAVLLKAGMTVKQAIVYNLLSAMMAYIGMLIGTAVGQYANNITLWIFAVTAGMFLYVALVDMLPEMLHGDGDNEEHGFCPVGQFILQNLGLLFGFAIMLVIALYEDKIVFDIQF
UniProt Q99808: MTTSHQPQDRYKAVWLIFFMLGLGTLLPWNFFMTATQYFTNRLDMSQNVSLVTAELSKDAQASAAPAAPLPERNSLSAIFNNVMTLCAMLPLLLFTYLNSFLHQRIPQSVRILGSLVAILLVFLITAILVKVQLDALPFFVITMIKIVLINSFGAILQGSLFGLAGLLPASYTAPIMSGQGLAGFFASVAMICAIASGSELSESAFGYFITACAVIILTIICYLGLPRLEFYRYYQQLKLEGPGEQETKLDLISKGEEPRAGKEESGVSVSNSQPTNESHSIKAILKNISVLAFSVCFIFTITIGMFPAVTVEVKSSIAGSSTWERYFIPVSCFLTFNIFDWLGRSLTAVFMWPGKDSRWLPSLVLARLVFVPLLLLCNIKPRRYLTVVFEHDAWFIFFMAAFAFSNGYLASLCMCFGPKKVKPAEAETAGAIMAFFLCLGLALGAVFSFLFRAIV
UniProt Q14BN4: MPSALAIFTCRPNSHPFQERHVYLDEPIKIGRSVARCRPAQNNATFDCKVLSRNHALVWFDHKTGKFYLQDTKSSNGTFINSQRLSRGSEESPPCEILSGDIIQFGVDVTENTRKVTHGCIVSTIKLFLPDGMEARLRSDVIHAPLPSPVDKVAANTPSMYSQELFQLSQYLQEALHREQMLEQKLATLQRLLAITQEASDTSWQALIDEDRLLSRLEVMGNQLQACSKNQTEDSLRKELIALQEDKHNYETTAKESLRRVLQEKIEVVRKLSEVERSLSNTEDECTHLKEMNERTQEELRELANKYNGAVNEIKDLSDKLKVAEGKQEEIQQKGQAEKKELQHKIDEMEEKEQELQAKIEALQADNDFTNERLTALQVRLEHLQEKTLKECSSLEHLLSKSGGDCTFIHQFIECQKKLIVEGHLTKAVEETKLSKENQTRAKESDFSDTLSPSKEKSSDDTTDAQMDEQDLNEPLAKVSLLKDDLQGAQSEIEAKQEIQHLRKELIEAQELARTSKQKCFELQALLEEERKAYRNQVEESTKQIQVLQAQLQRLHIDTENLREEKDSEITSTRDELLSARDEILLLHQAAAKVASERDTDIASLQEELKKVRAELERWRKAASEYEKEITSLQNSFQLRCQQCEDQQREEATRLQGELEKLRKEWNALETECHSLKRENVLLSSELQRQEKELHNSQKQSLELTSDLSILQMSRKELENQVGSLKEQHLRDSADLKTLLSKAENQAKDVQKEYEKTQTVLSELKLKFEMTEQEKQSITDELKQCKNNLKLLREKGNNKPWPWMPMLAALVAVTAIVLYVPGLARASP
UniProt Q96AG3: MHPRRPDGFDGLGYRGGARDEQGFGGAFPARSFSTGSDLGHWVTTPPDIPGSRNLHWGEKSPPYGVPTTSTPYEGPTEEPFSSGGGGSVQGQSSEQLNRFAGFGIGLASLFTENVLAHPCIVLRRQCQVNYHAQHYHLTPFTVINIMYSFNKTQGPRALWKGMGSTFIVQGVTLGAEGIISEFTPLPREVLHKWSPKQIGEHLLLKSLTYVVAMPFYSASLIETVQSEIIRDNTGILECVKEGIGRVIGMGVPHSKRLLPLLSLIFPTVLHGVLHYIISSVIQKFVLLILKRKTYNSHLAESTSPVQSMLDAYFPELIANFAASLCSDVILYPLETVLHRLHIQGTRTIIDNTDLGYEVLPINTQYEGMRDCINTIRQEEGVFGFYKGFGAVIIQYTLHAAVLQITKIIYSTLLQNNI
UniProt P05141: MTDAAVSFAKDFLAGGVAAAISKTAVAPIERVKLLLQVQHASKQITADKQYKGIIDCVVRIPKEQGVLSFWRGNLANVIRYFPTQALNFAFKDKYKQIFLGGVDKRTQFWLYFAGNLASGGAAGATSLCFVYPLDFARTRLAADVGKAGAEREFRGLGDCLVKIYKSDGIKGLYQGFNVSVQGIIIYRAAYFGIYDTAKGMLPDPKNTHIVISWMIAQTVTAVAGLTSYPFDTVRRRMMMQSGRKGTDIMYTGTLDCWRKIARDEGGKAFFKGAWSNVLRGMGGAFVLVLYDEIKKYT

Columns and labels:
Assay in all cases: log2 fold change, soluble protein after heating vs DMSO (PISA); higher = thermal stabilisation; K562 lysate, 10 uM; active = over 0.2 and 3.5 SD of the protein, either way, in both replicates (recomputed)
[1] = compound: CCCS(=O)(=O)Nc1ccc(F)c(C(=O)c2c[nH]c3ncc(-c4ccc(Cl)cc4)cc23)c1F [vemurafenib]
How it was run: (§1)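 Values give the log-two fold change in thermal stability against solvent controls, from duplicates. Crude K562 extract at 1 mg/mL protein, made by dounce homogenisation in PBS pH 7.4 with 1 mM MgCl2, was treated with 10 μM compound for 30 min. After 3 min heating across 48°C-58°C, aliquots were pooled, adjusted to 0.5% NP-40 at 4°C and centrifuged at 21,000xg for 90 min. The supernatant was measured by TMTpro 16plex LC-MS/MS with channel sums equalised.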

[2] = compound: CCCS(=O)(=O)Nc1ccc(F)c(C(=O)c2c[nH]c3ncc(Cl)cc23)c1F
How it was run: as §1

[3] = compound: CCN(CCCOc1ccc2c(Nc3cc(CC(=O)Nc4cccc(F)c4)[nH]n3)ncnc2c1)CCOP(=O)(O)O [barasertib]
How it was run: as §1

[4] = compound: CC[C@@H]1C(=O)N(C)c2cnc(Nc3ccc(C(=O)NC4CCN(C)CC4)cc3OC)nc2N1C1CCCC1
How it was run: as §1

[5] = compound: CC[C@@H]1C(=O)N(C)c2cnc(Nc3ccc(C(=O)N[C@H]4CC[C@H](N5CCN(CC6CC6)CC5)CC4)cc3OC)nc2N1C(C)C [volasertib]
How it was run: as §1

[6] = compound: CCn1c(C(=O)N(C2CC2)C2CC2)cc2c3c(ncn3C)c(Nc3cc(C)n(C)n3)nc21
How it was run: as §1

[7] = compound: CCn1cc(-c2ccnc3[nH]c(-c4cccc(CN(C)C)c4)cc23)c(-c2ccc(NC(=O)N(C)C)cc2)n1
How it was run: as §1

[8] = compound: CN1CCC(CNc2ccc3ncc(-c4cccc(OC(F)(F)F)c4)n3n2)CC1
How it was run: as §1

[9] = compound: CN1CCN(CCOc2cc(OC3CCOCC3)c3c(Nc4c(Cl)ccc5c4OCO5)ncnc3c2)CC1 [saracatinib]
How it was run: as §1

[10] = compound: CN1CCN(c2nc(C3=C(c4c[nH]c5ccccc45)C(=O)NC3=O)c3ccccc3n2)CC1 [sotrastaurin]
How it was run: as §1

[11] = compound: CN1CC[C@H](c2c(O)cc(O)c3c(=O)cc(-c4ccccc4Cl)oc23)[C@H](O)C1 [alvocidib]
How it was run: as §1

[12] = compound: CN1CCc2c(c3ccccc3n2Cc2ccc(C(=O)NO)cc2)C1 [Tubastatin A]
How it was run: as §1

[13] = compound: CNC(=O)C1=CC=CC=C1NC2=NC(=NC=C2Cl)NC3=C(C=C(C=C3)N4CCOCC4)OC
How it was run: as §1

[14] = compound: CNC(=O)c1ccc(Nc2ncc(C(F)(F)F)c(NCc3nccnc3N(C)S(C)(=O)=O)n2)cc1 [defactinib]
How it was run: as §1

[15] = compound: CNc1nc(-c2ccc3c(N)n[nH]c3c2)cc(N2C[C@@H](C(=O)NC3CCCCC3)CC[C@H]2C)n1
How it was run: as §1

[16] = compound: COC(=O)N[C@@H](C)CNc1nccc(-c2cn(C(C)C)nc2-c2cc(Cl)cc(NS(C)(=O)=O)c2F)n1 [encorafenib]
How it was run: as §1

[17] = compound: COC(=O)[C@H](CCSC)NC(=O)C1=C(C=C(C=C1)NC[C@H](CS)N)C2=CC=CC=C2
How it was run: as §1

[18] = compound: COc1cc(Nc2ncc3c(n2)-c2ccc(Cl)cc2C(c2c(F)cccc2OC)=NC3)ccc1C(=O)O [alisertib]
How it was run: as §1

[19] = compound: COc1cc2nc(-c3cc(F)ccc3O)nc(N[C@@H]3CNC[C@H]3C(C)(C)O)c2cc1OC
How it was run: as §1

[20] = compound: COc1cc2ncnc(Nc3ccc(F)c(Cl)c3)c2cc1OCCCN1CCOCC1 [gefitinib]
How it was run: as §1

Measured: log2 fold change

SLC25A1 (UniProt P53007)
inactive: [1] -0.017 | [2] 0.007 | [3] -0.029 | [4] 0.021 | [5] 0.013 | [6] -0.021 | [7] -0.041 | [8] 0.027 | [9] 0.003 | [10] 0.035 | [11] 0.02 | [12] 0.041 | [13] 0.015 | [14] 0.008 | [15] 0.011 | [16] 0.009 | [17] 0.077 | [18] 0.05 | [19] 0 | [20] -0.034

SLC25A12 (UniProt O75746)
inactive: [1] -0.006 | [2] 0.011 | [3] -0.026 | [4] 0.075 | [5] 0.037 | [6] -0.046 | [7] -0.052 | [8] 0.015 | [9] -0.012 | [10] -0.011 | [11] 0.002 | [12] 0.051 | [13] 0.02 | [14] 0.013 | [15] -0.011 | [16] -0.008 | [17] 0.034 | [18] -0.018 | [19] 0.012 | [20] -0.016

SLC37A4 isoform 2 (UniProt O43826)
inactive: [1] 0.034 | [2] 0.035 | [3] 0.039 | [4] 0.001 | [5] 0.036 | [6] -0.02 | [7] -0.224 | [8] 0.099 | [9] 0.015 | [10] -0.019 | [11] -0.126 | [12] -0.051 | [13] -0.112 | [14] -0.015 | [15] 0.02 | [16] 0.045 | [17] -0.047 | [18] 0.004 | [19] 0.039 | [20] -0.026

SLC25A20 (UniProt O43772)
inactive: [1] -0.021 | [2] 0.02 | [3] 0.011 | [4] 0.032 | [5] 0.039 | [6] -0.037 | [7] -0.066 | [8] 0.017 | [9] -0.038 | [10] 0.003 | [11] -0.011 | [12] 0.014 | [13] 0.031 | [14] 0.016 | [15] -0.012 | [16] 0.03 | [17] 0.005 | [18] -0.014 | [19] -0.019 | [20] 0.016

SLC36A1 (UniProt Q7Z2H8)
inactive: [1] 0.082 | [2] 0.038 | [3] 0.028 | [4] -0.062 | [5] -0.072 | [6] -0.037 | [7] -0.021 | [8] 0.129 | [9] -0.037 | [10] 0.034 | [11] 0.098 | [12] 0.055 | [13] 0.076 | [14] 0.027 | [15] -0.049 | [16] 0.113 | [17] 0.004 | [18] 0.153 | [19] -0.023 | [20] -0.16

SLC33A1 (UniProt O00400)
inactive: [1] 0.05 | [2] 0.023 | [3] -0.015 | [4] -0.002 | [5] 0.017 | [6] -0.004 | [7] -0.066 | [8] -0.005 | [9] 0 | [10] 0.003 | [11] 0.024 | [12] 0.009 | [13] -0.001 | [14] -0.006 | [15] 0.09 | [16] 0.026 | [17] -0.047 | [18] 0.06 | [19] -0.009 | [20] 0.039

SLC25A51 (UniProt Q9H1U9)
inactive: [1] -0.02 | [2] 0.222 | [3] 0.035 | [4] 0.052 | [5] -0.119 | [6] 0.037 | [7] -0.01 | [8] -0.057 | [9] -0.04 | [10] 0.01 | [11] 0.036 | [12] 0.033 | [13] 0 | [14] 0.023 | [15] -0.017 | [16] 0.024 | [17] -0.041 | [18] 0.06 | [19] -0.003 | [20] 0.004

SLC5A3 (UniProt P53794)
inactive: [1] 0.029 | [2] -0.035 | [3] -0.063 | [4] 0.023 | [5] 0.045 | [6] 0.013 | [7] 0.168 | [8] -0.022 | [9] 0.017 | [10] 0.02 | [11] 0.002 | [12] -0.053 | [13] 0.069 | [14] 0.018 | [15] 0.046 | [16] 0.021 | [17] -0.01 | [18] -0.025 | [19] 0.029 | [20] 0.038

SLC25A11 (UniProt Q02978)
inactive: [1] -0.046 | [2] 0.001 | [3] 0.013 | [4] 0.016 | [5] 0.022 | [6] -0.005 | [7] -0.127 | [8] 0.014 | [9] -0.004 | [10] -0.006 | [11] -0.061 | [12] 0.003 | [13] -0.03 | [14] 0.018 | [15] 0.042 | [16] 0.038 | [17] 0.032 | [18] -0.005 | [19] 0.007 | [20] 0

Fetched one by one from the entries so far (2):
SLC25A11 (UniProt Q02978)
inactive: [1] -0.046 | [2] 0.001 | [3] 0.013 | [4] 0.016 | [5] 0.022 | [6] -0.005 | [7] -0.127 | [8] 0.014 | [9] -0.004 | [10] -0.006 | [11] -0.061 | [12] 0.003 | [13] -0.03 | [14] 0.018 | [15] 0.042 | [16] 0.038 | [17] 0.032 | [18] -0.005 | [19] 0.007 | [20] 0

SLC25A51 (UniProt Q9H1U9)
inactive: [1] -0.02 | [2] 0.222 | [3] 0.035 | [4] 0.052 | [5] -0.119 | [6] 0.037 | [7] -0.01 | [8] -0.057 | [9] -0.04 | [10] 0.01 | [11] 0.036 | [12] 0.033 | [13] 0 | [14] 0.023 | [15] -0.017 | [16] 0.024 | [17] -0.041 | [18] 0.06 | [19] -0.003 | [20] 0.004

(continued)

SLC39A10 (UniProt Q9ULF5)
inactive: [1] 0.023 | [2] -0.032 | [3] -0.007 | [4] 0.097 | [5] 0.087 | [6] 0.032 | [7] 0.019 | [8] 0.038 | [9] -0.003 | [10] 0.032 | [11] -0.059 | [12] -0.025 | [13] 0 | [14] 0.039 | [15] -0.066 | [16] -0.001 | [17] -0.037 | [18] 0.016 | [19] 0.011 | [20] 0

SLC38A9 (UniProt Q8NBW4)
inactive: [1] 0.107 | [2] 0.044 | [3] -0.064 | [4] 0.029 | [5] 0.035 | [6] -0.028 | [7] 0.066 | [8] 0.071 | [9] 0.054 | [10] 0.052 | [11] 0 | [12] 0.045 | [13] 0.025 | [14] 0.014 | [15] -0.025 | [16] 0.059 | [17] -0.03 | [18] -0.031 | [19] 0 | [20] -0.057

SLC29A1 isoform 2 (UniProt Q99808)
inactive: [1] 0.036 | [2] 0.013 | [3] -0.021 | [4] 0.043 | [5] 0.033 | [6] -0.002 | [7] 0.073 | [8] 0.121 | [9] 0.102 | [10] 0.003 | [11] -0.087 | [12] -0.007 | [13] 0.023 | [14] 0.003 | [15] -0.159 | [16] 0.029 | [17] -0.092 | [18] -0.037 | [19] 0.013 | [20] 0.014

SLMAP isoform 3 (UniProt Q14BN4)
inactive: [1] 0.047 | [2] -0.005 | [3] 0.084 | [4] -0.008 | [5] -0.02 | [6] -0.019 | [7] 0.014 | [8] 0.012 | [9] 0.037 | [10] 0.05 | [11] -0.03 | [12] -0.044 | [13] -0.001 | [14] 0.033 | [15] -0.022 | [16] 0.025 | [17] 0.159 | [18] 0.06 | [19] 0.049 | [20] 0.09

SLC4A1 (UniProt P02730)
inactive: [1] -0.052 | [2] 0.035 | [3] 0.021 | [4] 0.005 | [5] 0.064 | [6] -0.089 | [7] 0.045 | [8] -0.074 | [9] 0.045 | [10] 0.104 | [11] -0.039 | [12] 0.054 | [13] -0.469 | [14] -0.086 | [15] 0.058 | [16] 0.046 | [17] 0.032 | [18] -0.065 | [19] 0.053 | [20] -0.052

SLC25A46 (UniProt Q96AG3)
inactive: [1] 0.04 | [2] 0.022 | [3] 0.005 | [4] 0.026 | [5] -0.014 | [6] 0.009 | [7] -0.014 | [8] 0.037 | [9] -0.032 | [10] 0.08 | [11] -0.006 | [12] 0.006 | [13] -0.057 | [14] 0.004 | [15] -0.006 | [16] 0.016 | [17] 0.041 | [18] -0.004 | [19] 0.02 | [20] 0.012

SLC25A5 (UniProt P05141)
inactive: [1] 0.012 | [2] 0.019 | [3] -0.05 | [4] 0.058 | [5] 0.032 | [6] -0.031 | [7] 0.17 | [8] -0.113 | [9] 0.038 | [10] -0.027 | [11] 0.075 | [12] 0.067 | [13] 0.06 | [14] -0.014 | [15] 0.105 | [16] -0.025 | [17] 0.079 | [18] 0.022 | [19] 0.025 | [20] -0.052
